# Reference: publication doi:10.1101/2020.06.08.139816
# Amino acid sequences for entries named in this document (tags omitted). A change or cut given only in a name is not applied to a line headed by its entry. Residues count along the entry.
# UniProt P10040, residues 84-2146: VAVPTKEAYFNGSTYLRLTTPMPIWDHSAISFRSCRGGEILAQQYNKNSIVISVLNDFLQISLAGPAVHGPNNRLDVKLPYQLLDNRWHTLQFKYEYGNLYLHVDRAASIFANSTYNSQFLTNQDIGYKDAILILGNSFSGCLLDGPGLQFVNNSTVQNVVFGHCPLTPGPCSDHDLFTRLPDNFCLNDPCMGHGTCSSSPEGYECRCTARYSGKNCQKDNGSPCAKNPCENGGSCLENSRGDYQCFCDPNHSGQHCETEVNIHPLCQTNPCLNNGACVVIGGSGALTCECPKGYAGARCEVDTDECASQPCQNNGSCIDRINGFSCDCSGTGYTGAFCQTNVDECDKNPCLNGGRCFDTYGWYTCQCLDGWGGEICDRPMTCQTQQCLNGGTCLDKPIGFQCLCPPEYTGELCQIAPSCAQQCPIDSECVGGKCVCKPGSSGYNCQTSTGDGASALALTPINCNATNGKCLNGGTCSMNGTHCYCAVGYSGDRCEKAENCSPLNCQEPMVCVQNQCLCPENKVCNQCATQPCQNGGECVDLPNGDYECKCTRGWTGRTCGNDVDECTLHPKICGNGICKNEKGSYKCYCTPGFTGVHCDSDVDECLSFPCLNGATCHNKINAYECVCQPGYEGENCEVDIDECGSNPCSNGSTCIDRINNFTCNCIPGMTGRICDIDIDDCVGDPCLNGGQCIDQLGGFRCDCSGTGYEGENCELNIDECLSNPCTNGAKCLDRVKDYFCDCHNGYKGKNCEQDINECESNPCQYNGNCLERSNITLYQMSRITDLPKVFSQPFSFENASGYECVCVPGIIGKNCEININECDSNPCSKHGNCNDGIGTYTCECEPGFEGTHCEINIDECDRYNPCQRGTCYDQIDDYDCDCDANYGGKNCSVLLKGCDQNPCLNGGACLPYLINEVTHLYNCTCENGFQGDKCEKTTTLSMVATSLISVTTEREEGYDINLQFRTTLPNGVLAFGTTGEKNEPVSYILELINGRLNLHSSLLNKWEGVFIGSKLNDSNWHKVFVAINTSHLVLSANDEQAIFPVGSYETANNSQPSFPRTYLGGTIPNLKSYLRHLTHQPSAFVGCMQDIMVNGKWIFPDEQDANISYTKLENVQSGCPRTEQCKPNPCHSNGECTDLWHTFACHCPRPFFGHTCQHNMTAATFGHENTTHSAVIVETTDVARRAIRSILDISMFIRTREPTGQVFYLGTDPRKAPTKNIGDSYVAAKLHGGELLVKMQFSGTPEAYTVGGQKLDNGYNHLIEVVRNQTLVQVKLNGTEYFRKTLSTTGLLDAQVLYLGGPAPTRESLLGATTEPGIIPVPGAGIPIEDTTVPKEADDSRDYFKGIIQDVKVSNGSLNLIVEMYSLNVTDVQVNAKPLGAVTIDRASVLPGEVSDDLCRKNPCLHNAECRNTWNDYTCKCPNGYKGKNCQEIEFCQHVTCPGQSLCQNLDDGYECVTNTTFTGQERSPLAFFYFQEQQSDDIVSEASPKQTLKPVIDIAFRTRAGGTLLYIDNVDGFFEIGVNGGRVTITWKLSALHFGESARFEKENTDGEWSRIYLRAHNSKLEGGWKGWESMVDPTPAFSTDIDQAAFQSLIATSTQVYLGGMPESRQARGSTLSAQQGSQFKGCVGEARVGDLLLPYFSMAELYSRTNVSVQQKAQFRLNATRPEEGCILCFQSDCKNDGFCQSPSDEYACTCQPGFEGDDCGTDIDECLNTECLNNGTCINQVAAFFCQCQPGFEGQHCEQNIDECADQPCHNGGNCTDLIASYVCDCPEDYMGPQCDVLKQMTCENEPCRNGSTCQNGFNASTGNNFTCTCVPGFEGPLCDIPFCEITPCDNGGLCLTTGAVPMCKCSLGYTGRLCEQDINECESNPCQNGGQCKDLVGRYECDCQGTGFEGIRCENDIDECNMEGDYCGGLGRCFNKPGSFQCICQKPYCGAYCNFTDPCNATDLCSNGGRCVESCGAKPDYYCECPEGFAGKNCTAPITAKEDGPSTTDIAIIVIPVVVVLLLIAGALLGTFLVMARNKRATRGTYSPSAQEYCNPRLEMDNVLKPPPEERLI
# UniProt P46824: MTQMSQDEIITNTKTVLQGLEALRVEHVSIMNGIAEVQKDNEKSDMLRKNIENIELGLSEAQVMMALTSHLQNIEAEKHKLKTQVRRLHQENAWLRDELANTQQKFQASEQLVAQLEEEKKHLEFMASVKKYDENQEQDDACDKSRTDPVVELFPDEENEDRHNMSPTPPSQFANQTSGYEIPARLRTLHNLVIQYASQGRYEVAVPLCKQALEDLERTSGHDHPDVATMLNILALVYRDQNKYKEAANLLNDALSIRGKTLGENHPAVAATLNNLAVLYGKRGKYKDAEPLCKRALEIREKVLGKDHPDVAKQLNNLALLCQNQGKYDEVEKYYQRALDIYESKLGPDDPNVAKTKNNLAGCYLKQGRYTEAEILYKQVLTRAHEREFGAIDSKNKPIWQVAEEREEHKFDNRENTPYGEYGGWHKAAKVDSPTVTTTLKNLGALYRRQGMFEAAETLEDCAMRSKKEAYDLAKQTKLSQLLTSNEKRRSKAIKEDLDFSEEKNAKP
# UniProt O62526: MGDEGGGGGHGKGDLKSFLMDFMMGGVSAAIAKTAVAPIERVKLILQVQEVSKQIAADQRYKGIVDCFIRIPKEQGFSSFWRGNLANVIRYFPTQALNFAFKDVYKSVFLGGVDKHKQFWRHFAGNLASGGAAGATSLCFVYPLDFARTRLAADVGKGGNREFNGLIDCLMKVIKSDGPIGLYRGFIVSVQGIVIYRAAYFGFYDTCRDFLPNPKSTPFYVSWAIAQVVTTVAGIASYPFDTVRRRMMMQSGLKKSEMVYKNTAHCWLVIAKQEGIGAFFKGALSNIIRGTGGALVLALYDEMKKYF
# UniProt P17210: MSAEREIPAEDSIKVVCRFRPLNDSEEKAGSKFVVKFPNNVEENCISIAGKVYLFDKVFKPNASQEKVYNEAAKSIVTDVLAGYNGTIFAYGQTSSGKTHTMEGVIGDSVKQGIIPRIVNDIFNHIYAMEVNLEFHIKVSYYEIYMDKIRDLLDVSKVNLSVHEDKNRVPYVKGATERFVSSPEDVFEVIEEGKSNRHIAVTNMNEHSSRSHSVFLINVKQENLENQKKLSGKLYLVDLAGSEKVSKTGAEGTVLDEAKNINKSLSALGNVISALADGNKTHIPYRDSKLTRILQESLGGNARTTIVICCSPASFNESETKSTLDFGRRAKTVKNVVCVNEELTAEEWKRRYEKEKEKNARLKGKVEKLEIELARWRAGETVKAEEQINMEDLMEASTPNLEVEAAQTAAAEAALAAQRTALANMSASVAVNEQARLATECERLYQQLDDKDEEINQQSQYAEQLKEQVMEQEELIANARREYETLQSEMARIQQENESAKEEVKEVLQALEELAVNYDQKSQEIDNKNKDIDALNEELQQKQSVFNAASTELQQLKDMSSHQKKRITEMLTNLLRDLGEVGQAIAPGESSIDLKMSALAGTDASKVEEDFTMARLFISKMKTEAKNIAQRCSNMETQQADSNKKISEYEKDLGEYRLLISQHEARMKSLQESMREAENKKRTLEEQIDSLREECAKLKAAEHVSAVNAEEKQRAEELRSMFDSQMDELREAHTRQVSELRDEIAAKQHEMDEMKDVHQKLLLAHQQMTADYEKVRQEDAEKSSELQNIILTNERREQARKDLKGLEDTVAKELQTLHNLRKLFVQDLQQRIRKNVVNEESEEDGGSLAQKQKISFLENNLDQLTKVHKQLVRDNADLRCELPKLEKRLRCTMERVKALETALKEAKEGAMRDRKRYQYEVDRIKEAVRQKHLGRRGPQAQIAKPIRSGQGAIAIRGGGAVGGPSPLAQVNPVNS
# No constants are given. Whether binding was seen depends on the method and setting. Binding seen in cells or lysates may run through a third protein. A yes stands for co-enrichment or nearness to the bait. Other partners may have been found. A no says only that the protein was not detected with the bait. Tags and fused reporters may be left off the sequences shown.
# B1: Mip18 (protein, UniProt Q9VTC4 1-156)
# chain: MPTEIENINPNVYDRIKERVLTANEEDENVPDPFDKREIFDLIRNINDPEHPLTLEELHVVQEDLIRINDSQNSVHISFTPTIPHCSMATLIGLSIRVKLLRSLPPRFKVTVEITPGTHASELAVNKQLADKERVAAALENNHLAEVINQCIAAKG
# B2: Ciao1 (protein, UniProt Q7K1Y4 1-335)
# chain: MGRLILEHTLQGHKGRIWGVAWHPKGNVFASCGEDKAIRIWSLTGNTWSTKTILSDGHKRTIREIRWSPCGQYLASASFDATTAIWSKSSGEFECNATLEGHENEVKSVSWSRSGGLLATCSRDKSVWIWEVAGDDEFECAAVLNPHTQDVKRVVWHPTKDILASASYDNTIKMFAEEPIDNDWDCTATLTSHTSTVWGIDFDADGERLVSCSDDTTIKIWRAYHPGNTAGVATPDQQTVWKCVCTVSGQHSRAIYDVSWCKLTGLIATACGDDGIRIFKESSDSKPDEPTFEQITAEEGAHDQDVNSVQWNPVVAGQLISCSDDGTIKIWKVTE
# B3: Lis-1 (protein, UniProt Q7KNS3 1-411)
# chain: MKMVLSQRQREELNQAIADYLGSNGYADSLETFRKEADLSTEVEKKFGGLLEKKWTSVIRLQKKVMELEAKLTEAEKEVIEGAPTKNKRTPGEWIPRPPEKFSLTGHRASITRVIFHPIFALMVSASEDATIRIWDFETGEYERSLKGHTDSVQDVAFDAQGKLLASCSADLSIKLWDFQQSYECIKTMHGHDHNVSSVAFVPAGDYVLSASRDRTIKMWEVATGYCVKTYTGHREWVRMVRVHIEGSIFATCSNDQTIRVWLTNSKDCKVELRDHEHTVECIAWAPEAAASAINEAAGADNKKGHHQGPFLASGSRDKTIRIWDVSVGLCLLTLSGHDNWVRGLAFHPGGKYLVSASDDKTIRVWDLRNKRCMKTLYAHQHFCTSIDFHKAHPYVISGSVDQTVKVWECR
# Target: T1, Mms19::eGFP (Drosophila) (UniProt Q95U54)
# T1 sequence: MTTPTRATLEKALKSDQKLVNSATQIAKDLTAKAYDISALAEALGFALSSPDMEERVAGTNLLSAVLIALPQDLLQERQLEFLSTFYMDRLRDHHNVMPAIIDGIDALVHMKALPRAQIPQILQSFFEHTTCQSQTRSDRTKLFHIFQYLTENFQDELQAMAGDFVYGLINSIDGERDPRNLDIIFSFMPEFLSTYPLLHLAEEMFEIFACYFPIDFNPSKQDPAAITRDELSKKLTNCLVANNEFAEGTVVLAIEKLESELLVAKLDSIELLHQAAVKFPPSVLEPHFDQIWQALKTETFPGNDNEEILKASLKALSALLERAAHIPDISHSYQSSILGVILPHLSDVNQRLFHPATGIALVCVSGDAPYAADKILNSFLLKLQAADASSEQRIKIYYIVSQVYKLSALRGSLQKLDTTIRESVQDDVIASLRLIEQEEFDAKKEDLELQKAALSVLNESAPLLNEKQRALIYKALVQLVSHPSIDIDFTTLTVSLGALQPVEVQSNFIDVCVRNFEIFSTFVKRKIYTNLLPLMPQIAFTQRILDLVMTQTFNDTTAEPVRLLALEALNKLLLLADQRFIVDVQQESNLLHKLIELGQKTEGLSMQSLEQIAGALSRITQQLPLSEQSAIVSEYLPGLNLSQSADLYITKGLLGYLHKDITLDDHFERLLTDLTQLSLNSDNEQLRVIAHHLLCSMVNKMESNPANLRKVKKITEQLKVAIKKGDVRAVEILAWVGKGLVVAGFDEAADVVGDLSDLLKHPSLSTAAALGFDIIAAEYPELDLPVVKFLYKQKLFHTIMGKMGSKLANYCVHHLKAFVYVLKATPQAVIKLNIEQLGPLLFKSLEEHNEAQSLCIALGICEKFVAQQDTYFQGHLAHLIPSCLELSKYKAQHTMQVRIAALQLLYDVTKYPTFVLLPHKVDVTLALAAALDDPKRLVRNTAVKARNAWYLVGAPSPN
# Test: affinity purification with mass spectrometry
row,Molecule,binding
1,Crumbs (from UniProt P10040 84-2146),no binding
2,Klp3a (Drosophila (endogenous in adult flies)),no binding
3,Kinesin light chain (from UniProt P46824 1-508),binds
4,Ant2 (from UniProt O62526),binds
5,Kinesin heavy chain (from UniProt P17210 1-975),binds
6,B1,binds
7,B2,binds
8,B3,binds
